Results of single-concentration screens

Chains of the proteins cited; added tags and fusions are not shown. Residues count along the entry.
UniProt Q4DA54, 1-478: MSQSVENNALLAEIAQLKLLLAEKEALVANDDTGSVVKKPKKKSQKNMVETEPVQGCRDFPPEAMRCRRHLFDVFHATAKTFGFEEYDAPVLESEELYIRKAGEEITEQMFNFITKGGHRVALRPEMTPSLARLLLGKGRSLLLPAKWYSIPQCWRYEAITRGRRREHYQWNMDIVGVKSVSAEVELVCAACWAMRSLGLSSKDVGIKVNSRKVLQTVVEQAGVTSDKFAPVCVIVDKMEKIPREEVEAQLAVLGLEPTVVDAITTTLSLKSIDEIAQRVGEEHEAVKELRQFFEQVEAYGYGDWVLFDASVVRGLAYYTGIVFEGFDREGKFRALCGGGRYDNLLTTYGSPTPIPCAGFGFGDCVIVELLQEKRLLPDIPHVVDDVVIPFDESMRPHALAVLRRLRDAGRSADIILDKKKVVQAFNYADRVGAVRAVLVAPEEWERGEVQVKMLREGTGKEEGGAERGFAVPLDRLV
UniProt P9WNZ1, whole entry: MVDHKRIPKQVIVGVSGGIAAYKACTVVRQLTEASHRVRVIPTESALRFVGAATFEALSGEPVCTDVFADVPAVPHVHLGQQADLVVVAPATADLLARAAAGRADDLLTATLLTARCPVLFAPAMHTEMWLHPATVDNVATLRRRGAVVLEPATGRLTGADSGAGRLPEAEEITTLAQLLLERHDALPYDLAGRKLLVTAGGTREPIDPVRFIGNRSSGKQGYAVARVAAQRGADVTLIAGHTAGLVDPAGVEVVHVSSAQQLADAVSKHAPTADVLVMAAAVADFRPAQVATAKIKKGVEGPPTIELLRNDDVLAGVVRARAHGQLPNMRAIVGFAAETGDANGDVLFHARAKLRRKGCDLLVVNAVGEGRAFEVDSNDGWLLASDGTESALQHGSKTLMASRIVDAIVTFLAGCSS

Measurements from “University of Dundee, Small-Polar-MMV Screening Library” (2021), ChEMBL document CHEMBL3988442.

TcHisRS: 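Histidine-tRNA ligase, Trypanosoma cruzi CL Brener (UniProt Q4DA54). Enzyme assay of histidyl-tRNA synthetase; the read-out is not stated. Concentration: 30 µM. Higher reads as stronger inhibition (inferred: compounds with an IC50 in retests scored well above the rest). Size under these conditions: about 69,000 compounds, about 31 of them at 50% or above in at least one test.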
CoaBC: 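Enzyme assay of CoaBC with a phosphate dye (Biomol Green) read at 650 nm. Target: Coenzyme A biosynthesis protein CoaBC, Mycobacterium tuberculosis (UniProt P9WNZ1). Concentration: 30 µM. Higher reads as stronger inhibition, judged from the few compounds that gave an IC50. Most strong results did not repeat in a second test. Size under these conditions: about 67,000 compounds, about 40 of them at 50% or above in at least one test.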

Results are given as percent effect. The controls that fix the scale are not given in the record; negative values are as filed. Compounds were drawn at random from those tested, without regard to their results. A dash means the value is not listed here; it may have been measured.

structure	TcHisRS	CoaBC
CCOCC(O)CN1CCN(C(=O)c2cccc(F)c2)CC1 (centres undefined)	-2.5%	-4.051%
COc1ccc(C(=O)N(C)Cc2cc(C)on2)c(F)c1	5.833%	-0.6316%
Cc1cccc(CN2CCC3(CC2)COC(COCC2CC2)C3)n1 (centres undefined)	10.55%	4.332%
O=C(c1ccco1)N1CCOCC2(C1)CN(c1ccoc1)C(=O)CO2 (centres undefined)	4.762%	-0.1233%
CSCC(=O)NC(Cc1ccc(C)cc1)c1ccccn1 (centres undefined)	3.061%	5.455%
CN1CCN(CCc2ncnn2-c2ccc3c(c2)OCO3)CC1	10.71%	2.941%
Cc1nc(CN2CCCC(c3cc(C(N)=O)[nH]n3)C2)oc1C (centres undefined)	2.326%	-23.9%
Cc1cnccc1N1CCCN(C(=O)CCc2n[nH]c(C)c2C)CC1	-2.041%	6.424%
CC(C)c1nc(C2CCCN(C(=O)CCc3cscn3)C2)no1 (centres undefined)	4.07%	-3.728%
O=C(NCCCn1ccnc1)Nc1ccn(CCc2ccccn2)n1	4.124%	12.97%
CCN1CCCC(O)(c2nc(C)c(CCOc3ccc(F)cc3)s2)CC1 (centres undefined)	5.323%	2.843%
CC(=O)N1C[C@H]2CNC[C@@]2(C(=O)NCCCOc2cccnc2)C1	3.03%	3.581%
O=C(NC[C@H]1CCCO1)c1ccc(S(=O)(=O)N2C[C@@H]3C[C@H]2CN3)cc1	10.31%	-1.978%
Cc1cnn(CCNCc2csc(-c3ncccn3)n2)c1	6.509%	4.689%
O=C1CC2(CCN(CC3CC3)C2)CN1c1ccc2c(c1)OCO2 (centres undefined)	-0.5464%	0.9009%
c1cnc(N2CCO[C@H]3CN(CC4CCOCC4)C[C@H]32)nc1	4.42%	-3.465%
CCOc1ccc(CN(C)C(=O)NC(C)c2nncn2C)cc1 (centres undefined)	0.813%	4.641%
CCn1cc(CNc2ccc(N(C)CCOC)cn2)cn1	24.68%	-
COCCN1CCCC(c2nccnc2-c2cccc(Cl)c2)C1 (centres undefined)	3.955%	-15.01%
CCCC(=O)N1CCC(c2ncc3c(n2)CCNC3)CC1	6.742%	0.1239%
Cc1nc(CN(C)S(=O)(=O)c2ccccc2C(F)(F)F)no1	4.242%	0.9732%
CCS(=O)(=O)NCC(=O)Nc1cc(CC(C)(C)C)n[nH]1	8.333%	2.335%
CC(NC(=O)Cn1cc(-c2ccccc2)cn1)C1CC1 (centres undefined)	2.579%	-4.596%
Cc1ccoc1C(=O)N1CCc2ncnc(-c3cnn(C)c3)c2CC1	-0.9346%	-3.457%
Cc1ccc(CN(C)C(=O)c2n[nH]c(N)c2-c2ccccc2)o1	6.931%	-1.214%
CCOc1ccc(Cl)cc1NC(=O)N1CCC(n2cncn2)CC1	3.017%	4.436%
CC(C)Nc1nc(N2CCCC2)nc2c1CN(c1ncc(F)cn1)CC2	6.667%	5.795%
CNC(=O)CN1CCC(NC(=O)C(C)Oc2ccccc2C#N)CC1 (centres undefined)	-5.882%	1.613%
CCCn1ccnc1CN1CCC(O)(CN2CCCCC2)C1 (centres undefined)	0.431%	5.703%
O=C(NCc1nnc2n1CCCCC2)N1CCc2sccc2C1	3.383%	12.27%
Cc1cn(Cc2nc(CC(C)C)nn2-c2ccccn2)c(=O)[nH]c1=O	4.046%	-8.678%
Cc1noc2ncc(S(=O)(=O)Nc3cc(C(C)(C)C)n[nH]3)cc12	8.021%	-6.087%
COc1c(CNCc2nnc3n2CCCCC3)c(C)nn1C	7.065%	0.4132%
O=C(Cc1ccc(-n2cnnn2)cc1)Nc1nncs1	5.882%	-1.138%
CCCc1nn(Cc2ccc(Br)s2)c(=O)o1	-1.493%	-0.1255%
COc1ncc(NC(=O)Nc2cc(C)ccc2OC)cn1	-1.087%	4.689%
Cc1nccnc1CN1CCC2(CCCN(C3CCOCC3)C2=O)C1 (centres undefined)	-2.479%	8.387%
C[C@@H]1C[C@H]2CN(C(=O)c3cccc4c3OCCO4)C[C@H]2O1	4.908%	-
Cc1ncc(CN2CC[C@@](C)(O)[C@H](Oc3cccc(F)c3)C2)cn1	7.692%	-1.456%
O=C1CCNc2ccc(F)cc2CN1Cc1ccco1	1.124%	-0.2421%
CCOC(=O)N1CCN(c2nc(C)ncc2CC)CC1	3.448%	2.8%
COC(=O)CN1CCCn2nc(CCC(=O)N3CCCC3)cc2C1	-0.4484%	-2.284%
CCn1c(CN(C)C)nnc1C1CCN(Cc2ccc(Cl)cc2)CC1	4.523%	-3.981%
NCc1n[nH]c(-c2ccc(F)cc2)n1	8.808%	8.866%
Cc1ccccc1CNCc1cc(Cl)ccc1O	5.699%	4.826%
COc1ccc(-c2nnc(CN3CCCC3Cn3cncn3)o2)cc1 (centres undefined)	4%	-1.673%
CC(=O)N1CC[C@H]2NC(=O)N(Cc3ccccc3)C(=O)[C@H]21	10.89%	6.095%
Oc1cccc(CN2C[C@H]3CC[C@@H]2CN(Cc2ccc(F)cc2)C3)c1	8.696%	-54.21%
COc1ccc(C2CCCN2Cc2nc3c(cnn3C)c(=O)[nH]2)cc1 (centres undefined)	2.924%	1.02%
CCC(NC(=O)C1CCN(S(C)(=O)=O)CC1)c1ccc(OC)c(C)c1 (centres undefined)	0%	6.364%
O=C(c1cc(C2CC2)[nH]n1)N1CCCC(n2cncn2)C1 (centres undefined)	0.7634%	-4.404%
CCN1CCOCC12CCN(c1cnccn1)CC2	-2.21%	4.703%
Cc1nn(C)c2c(N3CCN(C(=O)C4CCCO4)CC3)ncnc12 (centres undefined)	5.217%	-3.695%
CC(C)N(C(=O)c1csc(-c2ccoc2)n1)C1CCOCC1	5.952%	-2.451%
CCOc1cc2c(cc1CN1CCC3(CC1)CNC(=O)C3)CCC2	2.488%	6.173%
O=c1ccc2c(n1Cc1ccncc1)CCN(C1CCOC1)CC2 (centres undefined)	5.747%	-7.992%
CCc1nnc2n1CCN(Cc1ncc(-c3ccc(Cl)cc3)o1)C2	3.55%	5.45%
CCC[C@H]1CN(c2nccc(OC)n2)C[C@@H]1NS(=O)(=O)N(C)C	5.464%	1.089%
Cc1nc(C(=O)N2CCN(c3ccc(Cl)c(Cl)c3)CC2)cs1	0.4975%	0%
Cc1nc2cc(=O)[nH]n2c(C)c1CC(=O)NC(C)C	1.587%	8.058%
Cc1cc(CNC(=O)CC2CCN(C(C)C)CC2)n(C)n1	12.94%	5.405%
Cc1ccccc1[C@@H]1CN(CCOCCO)C[C@H]1C(=O)O	8.642%	1.104%
Cc1cc(N2CCC(CC(N)=O)CC2)nc(-c2ccncc2)n1	8.745%	3.162%
CNc1cnc(CC2COCCN(Cc3ccccc3)C2)cn1 (centres undefined)	10.34%	8.252%
CCOc1ccc(C#N)cc1NCC(=O)Nc1cc(F)ccc1F	-5.263%	-1.028%
COc1cc(NC(=O)c2cscn2)ncn1	7.097%	0.4831%
COC(=O)NCC(=O)NC1(C)CCc2ccccc2C1 (centres undefined)	6.25%	4.654%
CN1CCc2[nH]cnc2C12CCN(Cc1ccc(S(C)(=O)=O)cc1)CC2	7.216%	-11.86%
O=C(NCC(O)c1ccc(F)c(F)c1)c1ccccc1F (centres undefined)	-1.961%	-1.463%
CC/N=c1\nc(NCC)nc2n1C(O)(Nc1cccc(C)c1C)CS2 (centres undefined)	9%	-1.937%
CCN(Cc1ccncc1)Cc1c[nH]nc1-c1ccc(F)cc1	6.145%	0.8065%
CC(=O)NCCNCC1(O)CCCN(CCC2CCCCC2)C1=O (centres undefined)	6.533%	0.1206%
Cc1cccc(CS(=O)(=O)c2nnc([C@@H](N)Cc3ccccc3)o2)c1	7%	-13.08%
O=C(Cn1ccc2sccc2c1=O)NCCCc1ccccc1	0.9901%	-0.8475%
CS(=O)(=O)NCC(=O)NC1CCCN(c2ccccn2)C1 (centres undefined)	3.03%	-8.41%
Cc1nc(CN2CCOC(Cn3cncn3)C2)nc2ccccc12 (centres undefined)	-0.3774%	1.282%
O=C(NCC1CCOC1)N1CCN(Cc2ccc3c(c2)CCO3)CC1 (centres undefined)	3.788%	8.848%
CN(C)c1nc(N)nc(CN2CCC(c3nc4ccccc4o3)CC2)n1	8.642%	5.521%
O=C1C(NCc2nnc3n2CCCC3)CCCN1c1ccccc1 (centres undefined)	5.294%	1.279%
COCC(Nc1ncnc2sc(C(=O)O)c(C)c12)c1ccnn1C (centres undefined)	9.524%	1.471%
COc1ccccc1CCNS(=O)(=O)N1CCOCC1	12.12%	6.397%
COc1ccccc1C1(CNc2nnc(C)c(C)c2C#N)CCOCC1	8.867%	4.487%

The first 6 entries again:

For CCOCC(O)CN1CCN(C(=O)c2cccc(F)c2)CC1 (centres undefined) the result was TcHisRS: -2.5%; CoaBC: -4.051%.
For COc1ccc(C(=O)N(C)Cc2cc(C)on2)c(F)c1 the result was TcHisRS: 5.833%; CoaBC: -0.6316%.
For Cc1cccc(CN2CCC3(CC2)COC(COCC2CC2)C3)n1 (centres undefined) the result was TcHisRS: 10.55%; CoaBC: 4.332%.
For O=C(c1ccco1)N1CCOCC2(C1)CN(c1ccoc1)C(=O)CO2 (centres undefined) the result was TcHisRS: 4.762%; CoaBC: -0.1233%.
For CSCC(=O)NC(Cc1ccc(C)cc1)c1ccccn1 (centres undefined) the result was TcHisRS: 3.061%; CoaBC: 5.455%.
For CN1CCN(CCc2ncnn2-c2ccc3c(c2)OCO3)CC1 the result was TcHisRS: 10.71%; CoaBC: 2.941%.